Reference: patent US5731155A, “Compositions for inhibition of intracellular transcription factors and methods therefor” (Washington University, priority 1996, dated 1998)
Not every detail of the peptide structures is certain; ends, links or a residue may be inferred. Some entries repeat one wording, which the source may state once for all of them. Where a SMILES comes first, the peptide text is derived from it. [ ]: non-standard residue; d: D form. The star is where a group is joined. Biotin = O=C1N[C@H]2[C@H](CS[C@H]2CCCCC(=O)*)N1; pY = N[C@@H](Cc1ccc(OP(=O)(O)O)cc1)C(=O)O; Ahx = NCCCCCC(=O)O

Protein sequences, listed by entry. Tags and fused reporters are not part of them.
UniProt P42227, whole entry: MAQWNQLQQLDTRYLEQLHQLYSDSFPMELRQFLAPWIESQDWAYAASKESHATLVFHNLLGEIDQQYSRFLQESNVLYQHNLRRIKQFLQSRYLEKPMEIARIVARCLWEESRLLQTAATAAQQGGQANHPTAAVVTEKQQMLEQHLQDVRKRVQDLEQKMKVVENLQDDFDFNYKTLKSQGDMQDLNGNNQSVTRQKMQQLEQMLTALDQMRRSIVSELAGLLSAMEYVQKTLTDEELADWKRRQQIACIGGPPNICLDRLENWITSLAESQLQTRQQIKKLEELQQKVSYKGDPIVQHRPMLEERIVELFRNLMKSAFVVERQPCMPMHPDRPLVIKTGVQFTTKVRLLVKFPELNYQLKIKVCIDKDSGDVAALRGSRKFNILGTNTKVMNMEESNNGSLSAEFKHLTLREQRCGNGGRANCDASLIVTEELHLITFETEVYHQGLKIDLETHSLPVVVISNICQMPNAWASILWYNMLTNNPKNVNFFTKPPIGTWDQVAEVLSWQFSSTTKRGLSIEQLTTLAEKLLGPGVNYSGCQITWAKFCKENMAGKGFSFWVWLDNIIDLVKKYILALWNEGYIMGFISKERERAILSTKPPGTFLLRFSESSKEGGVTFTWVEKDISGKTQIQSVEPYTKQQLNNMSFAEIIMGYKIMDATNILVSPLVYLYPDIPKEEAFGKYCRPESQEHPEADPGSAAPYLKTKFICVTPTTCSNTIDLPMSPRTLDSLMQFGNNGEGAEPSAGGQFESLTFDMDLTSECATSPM

Key:
[1] = target: T1, STAT3 (Mus musculus, UniProt P42227); test: Inhibition of IL-10 dependent STAT3 phosphorylation in BaMR cell homogenates; assay type: biochemical; details: peptide 100 μM, 45 minutes at 4° C., then 100 ng/ml IL-10
T1 construct: Cytosolic homogenates of BaMR cells were precipitated with the biotinylated 12 amino acid peptides; endogenous in cells; host or cells: BaMR (BaF3 pre-B cells transfected with the IL-10 receptor) homogenates
Method: BaMR cell homogenates were prepared in a Dounce homogenizer and 18 μg of total protein was incubated without or with IL-10 at a concentration of 100 ng/ml for 15 minutes at 37° C. (FIG. 11, lanes 1 and 2). In lanes 3-8, 18 μg total protein of the BaMR homogenates was incubated for 45 minutes at 4° C. with a 100 μM concentration of the IL-10-receptor peptides having phosphorylated tyrosines at positions 374 (SEQ ID NO:26), 396 (SEQ ID NO:27), 427(SEQ ID NO:24), and 477(SEQ ID NO:25) (lanes 3-6) or 100 μM concentration of the non phosphorylated peptides having tyrosines at positions 427 (SEQ ID NO:28) and 477 (SEQ ID NO:29). Reaction mixtures were stimulated with 100 ng/ml IL-10 as described above and homogenates were precipitated with STAT3 or STAT1 specific antisera. Precipitates were blotted with phosphotyrosine specific antibody RC-20 and reactions developed using the ECL-system. Blots were stripped and reblotted with STAT3 and STAT1 specific antisera, respectively.

[2] = target: T2, p91 (Homo sapiens, UniProt P42224); test: Coprecipitation of p91 with biotinylated peptides (streptavidin) from Colo-205 homogenates; assay type: binding; details: biotinylated peptide 2 μM, Colo-205 homogenates with or without IFNγ, anti-p91 western blot
T2 construct: endogenous in cells; host or cells: Colo-205 (human adenocarcinoma) cell homogenates
T2 sequence (P42224 1-750): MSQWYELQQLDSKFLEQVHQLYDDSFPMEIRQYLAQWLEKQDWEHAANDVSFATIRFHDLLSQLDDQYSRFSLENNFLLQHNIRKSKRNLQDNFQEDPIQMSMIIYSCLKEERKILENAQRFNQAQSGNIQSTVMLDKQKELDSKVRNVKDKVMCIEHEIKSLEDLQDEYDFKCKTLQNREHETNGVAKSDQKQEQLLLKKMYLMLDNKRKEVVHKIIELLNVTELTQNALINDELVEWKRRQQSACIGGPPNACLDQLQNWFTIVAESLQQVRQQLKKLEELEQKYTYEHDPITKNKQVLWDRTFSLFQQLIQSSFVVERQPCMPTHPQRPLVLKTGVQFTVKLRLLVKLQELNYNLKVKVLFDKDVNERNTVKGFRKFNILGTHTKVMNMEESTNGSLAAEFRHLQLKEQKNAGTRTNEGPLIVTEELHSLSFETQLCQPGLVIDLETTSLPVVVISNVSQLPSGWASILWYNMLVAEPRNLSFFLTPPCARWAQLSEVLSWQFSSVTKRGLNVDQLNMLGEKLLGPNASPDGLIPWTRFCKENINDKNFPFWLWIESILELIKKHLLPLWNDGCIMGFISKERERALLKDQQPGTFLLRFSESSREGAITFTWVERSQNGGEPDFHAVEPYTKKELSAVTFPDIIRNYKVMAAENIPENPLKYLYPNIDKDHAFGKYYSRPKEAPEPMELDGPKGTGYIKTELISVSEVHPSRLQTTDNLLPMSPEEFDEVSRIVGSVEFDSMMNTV

[3] = target: T2, p91; test: Electrophoretic mobility shift assay (EMSA) of IFNγ-induced p91 activation in Colo-205 homogenates; assay type: biochemical; details: peptide 83 μM final, preincubated with Colo-205 homogenate before human IFNγ
Excerpt: For this example, the finding that the latent IFNγ inducible transcription factor, p91, can be activated by IFNγ in a cell free system (Igarashi et al., Mol Cell Biol 13:1634-1640, 1993 which is incorporated by reference) was utilized to determine the biologic significance of the IFNγ induced tyrosine phosphorylation of the Y440 residue in the IFNγ receptor molecule. Colo-205 homogenates were stimulated with 1900 IRU of human IFNγ and p91 activation monitored using an electrophoretic mobility gel shift assay (EMSA) that employed a ^32 P-labeled 18 bp probe derived from the FcγR I gene promoter (Pearse et al., Proc Natl Acad Sci 90:4314-4318, 1993 which is incorporated by reference). The EMSAs were carried out essentially as described (Igarashi et al., supra). […] The reactions were then electrophoresed through a 6% polyacrylamide gel in 0.25×TBE for 3 hours at 150 V. Gels were dried and subsequently analyzed by autoradiography. […] Specificity of interactions were determined by the addition of 350 ng of the unlabeled GRR probe or 560 ng of the unlabeled 41 base pair double stranded oligonucleotide containing the ISRE of ISG15 (5'-GATCCATGCCTCGGGA-[…]-3' SEQ ID NO: 14) (David and Larner, Science 257:813-815, 1992 which is incorporated by reference). […]

Structure (SMILES)	effect on IL-10 dependent phosphorylation of STAT3 [1]	further results
CC(C)C[C@H](NC(=O)[C@H](CCC(N)=O)NC(=O)[C@H](CCC(N)=O)NC(=O)CCCCCNC(=O)CCCC[C@@H]1SC[C@@H]2NC(=O)N[C@@H]21)C(=O)NCC(=O)N[C@@H](Cc1ccc(OP(=O)(O)O)cc1)C(=O)N[C@@H](Cc1c[nH]cn1)C(=O)N[C@@H](CCC(N)=O)C(=O)N[C@@H](CC(=O)O)C(=O)N[C@@H](CCC(N)=O)C(=O)N[C@@H](CC(=O)O)C(=O)N[C@@H](CC(=O)O)C(=O)N[C@@H](CO)C(=O)O [SEQ ID NO:26, Gln-Gln-Leu-Gly-Xaa-His-Gln-Asp-Gln-Asp-Asp-Ser] ({Biotin-Ahx}-QQLG[pY]HQDQDDS-OH)	did not affect	
C[C@@H](O)[C@H](NC(=O)CCCCCNC(=O)CCCC[C@@H]1SC[C@@H]2NC(=O)N[C@@H]21)C(=O)N[C@@H](Cc1ccccc1)C(=O)N[C@@H](CCC(N)=O)C(=O)NCC(=O)N[C@@H](Cc1ccc(O)cc1)C(=O)N[C@@H](CCC(N)=O)C(=O)N[C@@H](CCCCN)C(=O)N[C@@H](CCC(N)=O)C(=O)N[C@H](C(=O)N[C@@H](CCCNC(=N)N)C(=O)N[C@@H](Cc1c[nH]c2ccccc12)C(=O)N[C@@H](CCCCN)C(=O)O)[C@@H](C)O [SEQ ID NO:28, Thr-Phe-Gln-Gly-Tyr-Gln-Lys-Gln-Thr-Arg-Trp-Lys] ({Biotin-Ahx}-TFQGYQKQTRWK-OH)	did not affect	
CC(C)C[C@H](NC(=O)CCCCCNC(=O)CCCC[C@@H]1SC[C@@H]2NC(=O)N[C@@H]21)C(=O)N[C@@H](C)C(=O)N[C@@H](C)C(=O)NCC(=O)N[C@@H](Cc1ccc(O)cc1)C(=O)N[C@@H](CC(C)C)C(=O)N[C@@H](CCCCN)C(=O)N[C@@H](CCC(N)=O)C(=O)N[C@@H](CCC(=O)O)C(=O)N[C@@H](CO)C(=O)N[C@@H](CCC(N)=O)C(=O)NCC(=O)O [SEQ ID NO:29, Leu-Ala-Ala-Gly-Tyr-Leu-Lys-Gln-Glu-Ser-Gln-Gly] ({Biotin-Ahx}-LAAGYLKQESQG-OH)	did not affect	
CC(C)C[C@H](NC(=O)[C@@H](NC(=O)[C@H](C)NC(=O)[C@@H]1CCCN1C(=O)[C@H](CCCCN)NC(=O)[C@H](C)NC(=O)[C@H](Cc1ccc(OP(=O)(O)O)cc1)NC(=O)CNC(=O)[C@H](Cc1ccccc1)NC(=O)[C@H](CO)NC(=O)[C@@H](NC(=O)CCCCCNC(=O)CCCC[C@@H]1SC[C@@H]2NC(=O)N[C@@H]21)[C@@H](C)O)C(C)C)C(=O)N[C@H](C(=O)O)C(C)C [SEQ ID NO:19, Thr-Ser-Phe-Gly-Xaa-Ala-Lys-Pro-Ala-Val-Leu-Val] ({Biotin-Ahx}-TSFG[pY]AKPAVLV-OH)		coprecipitation of p91 with biotinylated peptide [2]: No interaction
CC(C)C[C@H](NC(=O)[C@H](CC(=O)O)NC(=O)[C@H](CO)NC(=O)[C@H](C)NC(=O)[C@H](CC(=O)O)NC(=O)[C@H](CCC(N)=O)NC(=O)[C@@H](NC(=O)[C@H](Cc1ccc(OP(=O)(O)O)cc1)NC(=O)[C@H](CCCCN)NC(=O)[C@@H]1CCCN1C(=O)[C@H](CCC(N)=O)NC(=O)CNC(=O)CCCCCNC(=O)CCCC[C@@H]1SC[C@@H]2NC(=O)N[C@@H]21)[C@@H](C)O)C(=O)O [SEQ ID NO:27, Gly-Gln-Pro-Lys-Xaa-Thr-Gln-Asp-Ala-Ser-Asp-Leu] ({Biotin-Ahx}-GQPK[pY]TQDASDL-OH)	did not affect	
CC(C)C[C@H](NC(=O)[C@@H](NC(=O)[C@H](Cc1c[nH]cn1)NC(=O)[C@@H]1CCCN1C(=O)[C@H](CCCCN)NC(=O)[C@H](CC(=O)O)NC(=O)[C@H](Cc1ccc(O)cc1)NC(=O)CNC(=O)[C@H](Cc1ccccc1)NC(=O)[C@H](CO)NC(=O)[C@@H](NC(=O)CCCCCNC(=O)CCCC[C@@H]1SC[C@@H]2NC(=O)N[C@@H]21)[C@@H](C)O)C(C)C)C(=O)N[C@H](C(=O)O)C(C)C [SEQ ID NO:18, Thr-Ser-Phe-Gly-Tyr-Asp-Lys-Pro-His-Val-Leu-Val] ({Biotin-Ahx}-TSFGYDKPHVLV-OH)		coprecipitation of p91 with biotinylated peptide [2]: No p91 is precipitated
C[C@H](NC(=O)[C@@H]1CCCN1C(=O)[C@H](CCCCN)NC(=O)[C@H](C)NC(=O)[C@H](Cc1ccc(OP(=O)(O)O)cc1)NC(=O)CNC(=O)[C@H](Cc1ccccc1)NC(=O)[C@H](CO)NC(=O)[C@@H](N)[C@@H](C)O)C(=O)O [SEQ ID NO:16, Thr-Ser-Phe-Gly-Xaa-Ala-Lys-Pro-Ala] (H-TSFG[pY]AKPA-OH)		effect on p91 activation (formation of activated p91-labeled probe complex) [3]: no inhibition
C[C@@H](O)[C@H](N)C(=O)N[C@@H](CO)C(=O)N[C@@H](Cc1ccccc1)C(=O)NCC(=O)N[C@@H](Cc1ccc(O)cc1)C(=O)N[C@@H](CC(=O)O)C(=O)N[C@@H](CCCCN)C(=O)N1CCC[C@H]1C(=O)N[C@@H](Cc1c[nH]cn1)C(=O)O [SEQ ID NO:15, Thr-Ser-Phe-Gly-Tyr-Asp-Lys-Pro-His] (H-TSFGYDKPH-OH)		effect on p91 activation (formation of activated p91-labeled probe complex) [3]: no effect
